Experimental data published in article doi:10.1101/2024.02.17.580827 (bioRxiv, 2024).
Where two headings read alike, the source gives them in different places. No constants are given. Whether binding was seen depends on the method and setting. For some of these results: In cells and extracts the contact can be indirect. Some binding calls cover weakened binding; strength is not graded here.

Sequences of proteins named here, by UniProt entry; tags and fusion partners are left off.
UniProt P0A825: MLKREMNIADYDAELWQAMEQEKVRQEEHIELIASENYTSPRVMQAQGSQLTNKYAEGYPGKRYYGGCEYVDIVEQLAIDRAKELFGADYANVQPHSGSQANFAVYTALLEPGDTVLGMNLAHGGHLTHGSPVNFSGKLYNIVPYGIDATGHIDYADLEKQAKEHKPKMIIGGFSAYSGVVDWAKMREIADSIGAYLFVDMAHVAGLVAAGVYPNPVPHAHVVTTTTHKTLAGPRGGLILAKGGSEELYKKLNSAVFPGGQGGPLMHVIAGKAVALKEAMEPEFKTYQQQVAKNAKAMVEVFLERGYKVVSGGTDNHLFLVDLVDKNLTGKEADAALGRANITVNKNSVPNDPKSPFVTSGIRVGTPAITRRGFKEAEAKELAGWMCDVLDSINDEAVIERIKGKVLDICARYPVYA
UniProt P0AEZ1: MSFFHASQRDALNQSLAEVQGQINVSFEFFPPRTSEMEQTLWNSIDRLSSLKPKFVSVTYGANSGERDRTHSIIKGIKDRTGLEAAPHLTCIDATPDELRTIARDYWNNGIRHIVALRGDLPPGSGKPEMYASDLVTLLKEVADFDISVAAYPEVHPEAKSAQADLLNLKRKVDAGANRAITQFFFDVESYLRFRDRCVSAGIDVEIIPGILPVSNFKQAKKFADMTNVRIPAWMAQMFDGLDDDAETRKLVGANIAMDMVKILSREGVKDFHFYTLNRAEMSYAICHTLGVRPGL
UniProt P0ABQ4: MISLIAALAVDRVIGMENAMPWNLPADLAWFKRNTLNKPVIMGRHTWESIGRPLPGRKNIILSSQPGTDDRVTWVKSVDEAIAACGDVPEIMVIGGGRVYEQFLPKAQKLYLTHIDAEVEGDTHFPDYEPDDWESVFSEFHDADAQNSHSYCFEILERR
UniProt P69441: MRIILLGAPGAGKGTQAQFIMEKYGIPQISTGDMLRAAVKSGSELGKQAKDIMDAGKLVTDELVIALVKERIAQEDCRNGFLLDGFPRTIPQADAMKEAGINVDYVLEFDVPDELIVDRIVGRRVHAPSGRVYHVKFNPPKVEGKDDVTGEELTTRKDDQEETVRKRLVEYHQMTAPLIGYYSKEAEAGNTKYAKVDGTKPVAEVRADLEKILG

T1: PurK (E. coli) (UniProt P09029)
T1 sequence: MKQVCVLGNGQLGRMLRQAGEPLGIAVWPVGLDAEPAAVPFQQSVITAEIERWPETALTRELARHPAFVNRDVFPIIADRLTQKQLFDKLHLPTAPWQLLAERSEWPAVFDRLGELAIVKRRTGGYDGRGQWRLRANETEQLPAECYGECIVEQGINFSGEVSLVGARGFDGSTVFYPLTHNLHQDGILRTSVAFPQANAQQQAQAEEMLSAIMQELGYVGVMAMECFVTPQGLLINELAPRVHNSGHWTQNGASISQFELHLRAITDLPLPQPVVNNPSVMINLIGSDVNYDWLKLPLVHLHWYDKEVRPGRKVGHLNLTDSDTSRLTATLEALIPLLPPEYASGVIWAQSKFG

T2: NudB (E. coli) (UniProt P0AFC0)
T2 sequence: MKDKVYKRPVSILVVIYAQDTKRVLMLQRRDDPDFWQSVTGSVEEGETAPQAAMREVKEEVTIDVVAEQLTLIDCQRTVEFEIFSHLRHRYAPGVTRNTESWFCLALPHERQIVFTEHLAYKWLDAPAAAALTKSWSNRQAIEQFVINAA

T3: Thymidylate Kinase (Tmk) (E. coli) (UniProt P0A720)
T3 sequence: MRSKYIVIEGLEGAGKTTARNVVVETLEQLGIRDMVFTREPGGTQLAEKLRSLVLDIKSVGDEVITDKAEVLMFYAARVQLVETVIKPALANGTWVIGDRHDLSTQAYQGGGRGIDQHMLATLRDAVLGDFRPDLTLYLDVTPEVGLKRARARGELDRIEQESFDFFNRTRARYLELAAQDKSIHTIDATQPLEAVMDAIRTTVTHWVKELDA

T4: FolK (purified protein) (E. coli, UniProt P26281 1-159)
T4 sequence: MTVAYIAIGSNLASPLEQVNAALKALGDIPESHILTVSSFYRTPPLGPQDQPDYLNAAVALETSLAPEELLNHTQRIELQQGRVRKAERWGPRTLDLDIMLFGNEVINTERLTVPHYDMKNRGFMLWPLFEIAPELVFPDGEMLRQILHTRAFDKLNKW

T5: PurT (E. coli) (UniProt P33221)
T5 sequence: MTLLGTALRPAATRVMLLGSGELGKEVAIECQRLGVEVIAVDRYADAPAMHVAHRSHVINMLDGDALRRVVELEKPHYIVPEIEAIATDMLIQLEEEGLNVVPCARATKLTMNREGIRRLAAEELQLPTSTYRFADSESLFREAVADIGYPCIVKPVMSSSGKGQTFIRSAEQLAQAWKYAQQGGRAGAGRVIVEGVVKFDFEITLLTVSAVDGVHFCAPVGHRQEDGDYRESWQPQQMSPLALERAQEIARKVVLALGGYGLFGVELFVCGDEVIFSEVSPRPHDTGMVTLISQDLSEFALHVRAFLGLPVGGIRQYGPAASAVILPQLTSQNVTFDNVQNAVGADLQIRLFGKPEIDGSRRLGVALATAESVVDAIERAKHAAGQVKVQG

T6: PurM (E. coli) (UniProt P08178)
T6 sequence: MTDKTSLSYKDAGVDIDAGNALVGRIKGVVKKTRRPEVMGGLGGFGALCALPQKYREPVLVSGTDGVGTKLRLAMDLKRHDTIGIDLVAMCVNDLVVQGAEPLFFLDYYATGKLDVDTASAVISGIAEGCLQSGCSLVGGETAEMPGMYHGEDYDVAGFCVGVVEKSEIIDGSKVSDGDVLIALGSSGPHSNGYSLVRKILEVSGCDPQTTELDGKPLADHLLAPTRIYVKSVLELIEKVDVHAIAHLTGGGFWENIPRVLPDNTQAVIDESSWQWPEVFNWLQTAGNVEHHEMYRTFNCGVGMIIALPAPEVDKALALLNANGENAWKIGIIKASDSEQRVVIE

T7: PurD (E. coli) (UniProt P15640)
T7 sequence: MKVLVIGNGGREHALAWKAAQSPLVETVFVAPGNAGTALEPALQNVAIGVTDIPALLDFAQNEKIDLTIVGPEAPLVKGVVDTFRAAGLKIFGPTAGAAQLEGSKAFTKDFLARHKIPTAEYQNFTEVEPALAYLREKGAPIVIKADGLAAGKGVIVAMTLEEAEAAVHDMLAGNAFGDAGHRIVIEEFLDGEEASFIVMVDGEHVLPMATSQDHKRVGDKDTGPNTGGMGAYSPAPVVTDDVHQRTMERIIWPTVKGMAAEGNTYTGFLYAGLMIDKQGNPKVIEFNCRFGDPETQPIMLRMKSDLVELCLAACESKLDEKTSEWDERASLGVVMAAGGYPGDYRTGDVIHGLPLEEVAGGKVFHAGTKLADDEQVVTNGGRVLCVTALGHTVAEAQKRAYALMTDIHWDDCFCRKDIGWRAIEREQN

T8: PabC (E. coli) (UniProt P28305)
T8 sequence: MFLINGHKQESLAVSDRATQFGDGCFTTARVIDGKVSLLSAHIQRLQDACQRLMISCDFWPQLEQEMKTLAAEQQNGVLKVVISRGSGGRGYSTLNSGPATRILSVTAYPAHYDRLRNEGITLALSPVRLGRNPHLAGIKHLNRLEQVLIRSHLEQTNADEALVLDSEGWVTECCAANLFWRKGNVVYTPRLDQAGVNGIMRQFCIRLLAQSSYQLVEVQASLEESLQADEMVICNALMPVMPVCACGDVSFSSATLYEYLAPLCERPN


How the values were obtained:
[1] = target: GlyA (E. coli) (UniProt P0A825); test: split reporter
[2] = target: T1, PurK (E. coli); test: split reporter
[3] = target: T2, NudB (E. coli); test: split reporter
[4] = target: MetF (E. coli) (UniProt P0AEZ1); test: split reporter
[5] = target: T3, Thymidylate Kinase (Tmk) (E. coli); test: split reporter
[6] = target: T4, FolK (purified protein); test: Raman spectroscopy
[7] = target: WT DHFR (purified protein) (E. coli) (UniProt P0ABQ4); test: Raman spectroscopy
[8] = target: T5, PurT (E. coli); test: split reporter
[9] = target: T6, PurM (E. coli); test: split reporter
[10] = target: T7, PurD (E. coli); test: split reporter
[11] = target: T5, PurT (E. coli); test: split reporter; remark: listed apart in the source
[12] = target: T8, PabC (E. coli); test: split reporter

binding [1] | binding [3] | binding [4] | binding [8] | Molecule | other results
binds | binds | binds | – | Dihydrofolate Reductase (DHFR) (from UniProt P0ABQ4) (enzyme) | binding [2]: binds; binding [5]: binds
– | – | – | – | ADK (purified control protein) (from UniProt P69441 1-214) (enzyme) | binding [6]: no binding (tested: 15 µM); binding [7]: no binding (tested: 15 µM)
binds | – | binds | – | GlyA (from UniProt P0A825 1-417) (enzyme) | –
– | – | – | binds | PurM (enzyme, UniProt P08178 1-345) MTDKTSLSYKDAGVDIDAGNALVGRIKGVVKKTRRPEVMGGLGGFGALCALPQKYREPVLVSGTDGVGTKLRLAMDLKRHDTIGIDLVAMCVNDLVVQGAEPLFFLDYYATGKLDVDTASAVISGIAEGCLQSGCSLVGGETAEMPGMYHGEDYDVAGFCVGVVEKSEIIDGSKVSDGDVLIALGSSGPHSNGYSLVRKILEVSGCDPQTTELDGKPLADHLLAPTRIYVKSVLELIEKVDVHAIAHLTGGGFWENIPRVLPDNTQAVIDESSWQWPEVFNWLQTAGNVEHHEMYRTFNCGVGMIIALPAPEVDKALALLNANGENAWKIGIIKASDSEQRVVIE | –
binds | – | binds | – | FolK (enzyme, UniProt P26281 1-159) MTVAYIAIGSNLASPLEQVNAALKALGDIPESHILTVSSFYRTPPLGPQDQPDYLNAAVALETSLAPEELLNHTQRIELQQGRVRKAERWGPRTLDLDIMLFGNEVINTERLTVPHYDMKNRGFMLWPLFEIAPELVFPDGEMLRQILHTRAFDKLNKW | –
– | – | – | binds | PurK (enzyme, UniProt P09029 1-355) MKQVCVLGNGQLGRMLRQAGEPLGIAVWPVGLDAEPAAVPFQQSVITAEIERWPETALTRELARHPAFVNRDVFPIIADRLTQKQLFDKLHLPTAPWQLLAERSEWPAVFDRLGELAIVKRRTGGYDGRGQWRLRANETEQLPAECYGECIVEQGINFSGEVSLVGARGFDGSTVFYPLTHNLHQDGILRTSVAFPQANAQQQAQAEEMLSAIMQELGYVGVMAMECFVTPQGLLINELAPRVHNSGHWTQNGASISQFELHLRAITDLPLPQPVVNNPSVMINLIGSDVNYDWLKLPLVHLHWYDKEVRPGRKVGHLNLTDSDTSRLTATLEALIPLLPPEYASGVIWAQSKFG | binding [2]: binds; binding [9]: binds; binding [10]: binds
– | – | – | binds | PurD (enzyme, UniProt P15640 1-429) MKVLVIGNGGREHALAWKAAQSPLVETVFVAPGNAGTALEPALQNVAIGVTDIPALLDFAQNEKIDLTIVGPEAPLVKGVVDTFRAAGLKIFGPTAGAAQLEGSKAFTKDFLARHKIPTAEYQNFTEVEPALAYLREKGAPIVIKADGLAAGKGVIVAMTLEEAEAAVHDMLAGNAFGDAGHRIVIEEFLDGEEASFIVMVDGEHVLPMATSQDHKRVGDKDTGPNTGGMGAYSPAPVVTDDVHQRTMERIIWPTVKGMAAEGNTYTGFLYAGLMIDKQGNPKVIEFNCRFGDPETQPIMLRMKSDLVELCLAACESKLDEKTSEWDERASLGVVMAAGGYPGDYRTGDVIHGLPLEEVAGGKVFHAGTKLADDEQVVTNGGRVLCVTALGHTVAEAQKRAYALMTDIHWDDCFCRKDIGWRAIEREQN | binding [9]: binds; binding [11]: binds
– | no binding | – | – | PabA (enzyme, UniProt P00903 1-187) MILLIDNYDSFTWNLYQYFCELGADVLVKRNDALTLADIDALKPQKIVISPGPCTPDEAGISLDVIRHYAGRLPILGVCLGHQAMAQAFGGKVVRAAKVMHGKTSPITHNGEGVFRGLANPLTVTRYHSLVVEPDSLPACFDVTAWSETREIMGIRHRQWDLEGVQFHPESILSEQGHQLLANFLHR | binding [12]: no binding
– | no binding | – | – | PabC (enzyme, UniProt P28305 1-269) MFLINGHKQESLAVSDRATQFGDGCFTTARVIDGKVSLLSAHIQRLQDACQRLMISCDFWPQLEQEMKTLAAEQQNGVLKVVISRGSGGRGYSTLNSGPATRILSVTAYPAHYDRLRNEGITLALSPVRLGRNPHLAGIKHLNRLEQVLIRSHLEQTNADEALVLDSEGWVTECCAANLFWRKGNVVYTPRLDQAGVNGIMRQFCIRLLAQSSYQLVEVQASLEESLQADEMVICNALMPVMPVCACGDVSFSSATLYEYLAPLCERPN | –
